This is an account of results in paper doi:10.64898/2025.12.18.692915.

Assay [1] has as its target T1, Kv6.4-HA wild-type (human) (UniProt Q8TDN1).
T1 sequence: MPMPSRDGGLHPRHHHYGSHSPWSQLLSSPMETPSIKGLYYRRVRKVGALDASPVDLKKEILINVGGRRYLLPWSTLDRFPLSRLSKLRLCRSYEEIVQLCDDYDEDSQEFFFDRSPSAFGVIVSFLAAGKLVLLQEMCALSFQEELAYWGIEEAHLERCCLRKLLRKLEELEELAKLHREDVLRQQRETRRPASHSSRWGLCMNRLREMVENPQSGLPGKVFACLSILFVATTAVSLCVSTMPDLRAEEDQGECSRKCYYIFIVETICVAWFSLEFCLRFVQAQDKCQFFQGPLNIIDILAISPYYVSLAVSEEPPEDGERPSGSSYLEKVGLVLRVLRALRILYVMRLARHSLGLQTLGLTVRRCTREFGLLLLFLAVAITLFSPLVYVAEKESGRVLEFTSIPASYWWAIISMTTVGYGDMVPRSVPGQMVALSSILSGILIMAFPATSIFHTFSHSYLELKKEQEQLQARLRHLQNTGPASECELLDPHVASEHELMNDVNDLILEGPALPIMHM
The experiment in a line: co-IP.

Assay [2] concerns the target T2, Kv6.1-HA wild-type (human) (UniProt Q9UIX4).
T2 sequence: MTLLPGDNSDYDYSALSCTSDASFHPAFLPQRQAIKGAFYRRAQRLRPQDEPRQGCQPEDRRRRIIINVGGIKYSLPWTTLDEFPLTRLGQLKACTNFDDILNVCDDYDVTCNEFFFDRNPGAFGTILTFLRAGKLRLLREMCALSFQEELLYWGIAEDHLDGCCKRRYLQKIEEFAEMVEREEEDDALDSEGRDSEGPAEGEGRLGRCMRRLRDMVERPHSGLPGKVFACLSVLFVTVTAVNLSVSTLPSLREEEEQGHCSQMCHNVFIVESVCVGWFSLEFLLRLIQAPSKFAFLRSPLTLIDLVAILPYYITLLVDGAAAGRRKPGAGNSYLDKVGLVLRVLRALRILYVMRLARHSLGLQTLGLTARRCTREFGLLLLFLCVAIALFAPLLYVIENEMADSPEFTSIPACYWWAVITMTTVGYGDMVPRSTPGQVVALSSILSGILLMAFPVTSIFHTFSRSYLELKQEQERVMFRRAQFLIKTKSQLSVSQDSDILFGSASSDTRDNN
The experiment in a line: co-IP.

These are yes or no findings as the source states them, for the method shown. Binding seen in cells or lysates may run through a third protein. Tags and fused reporters may be left off the sequences shown.

B1: Kv6.2-Flag wild-type (protein, UniProt Q9UJ96 1-466)
chain: MEPWPCSPGGGGGTRARHVIINVGGCRVRLAWAALARCPLARLERLRACRGHDDLLRVCDDYDVSRDEFFFDRSPCAFRAIVALLRAGKLRLLRGPCALAFRDELAYWGIDEARLERCCLRRLRRREEEAAEARAGPTERGAQGSPARALGPRGRLQRGRRRLRDVVDNPHSGLAGKLFACVSVSFVAVTAVGLCLSTMPDIRAEEERGECSPKCRSLFVLETVCVAWFSFEFLLRSLQAESKCAFLRAPLNIIDILALLPFYVSLLLGLAAGPGGTKLLERAGLVLRLLRALRVLYVMRLARHSLGLRSLGLTMRRCAREFGLLLLFLCVAMALFAPLVHLAERELGARRDFSSVPASYWWAVISMTTVGYGDMVPRSLPGQVVALSSILSGILLMAFPVTSIFHTFSRSYSELKEQQQRAASPEPALQEDSTHSATATEDSSQGPDSAGLADDSADALWVRAGR
For the molecule B1, the binding entry in assay [1] was “no binding”.

B2: Kv6.3-Flag wild-type (protein, UniProt Q8TAE7 1-436)
chain: MTFGRSGAASVVLNVGGARYSLSRELLKDFPLRRVSRLHGCRSERDVLEVCDDYDRERNEYFFDRHSEAFGFILLYVRGHGKLRFAPRMCELSFYNEMIYWGLEGAHLEYCCQRRLDDRMSDTYTFYSADEPGVLGRDEARPGGAEAAPSRRWLERMRRTFEEPTSSLAAQILASVSVVFVIVSMVVLCASTLPDWRNAAADNRSLDDRSRYSAGPGREPSGIIEAICIGWFTAECIVRFIVSKNKCEFVKRPLNIIDLLAITPYYISVLMTVFTGENSQLQRAGVTLRVLRMMRIFWVIKLARHFIGLQTLGLTLKRCYREMVMLLVFICVAMAIFSALSQLLEHGLDLETSNKDFTSIPAACWWVIISMTTVGYGDMYPITVPGRILGGVCVVSGIVLLALPITFIYHSFVQCYHELKFRSARYSRSLSTEFLN
Regarding B2, the binding result in assay [1] and in assay [2] was “no binding” in each case.

B3: Kv6.1-Flag wild-type (protein, UniProt Q9UIX4 1-513)
chain: T2 sequence
On to B3, for which the binding result in assay [1] is listed as “no binding”.
